The list shows a part of the results.
What was measured:
Assay in all cases: log2 fold change, soluble protein after heating vs DMSO (PISA); higher = thermal stabilisation; K562 lysate, 10 uM; active = over 0.2 and 3.5 SD of the protein, either way, in both replicates (recomputed)
[1] = compound: C1=CC=C(C=C1)[C@H](COC2=CC3=C(C=C2)NC(=O)N3)NC(=O)C4=CC=CN(C4=O)CC5=CC(=C(C=C5)F)F
How it was run: (§1)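 A 30 min treatment with 10 μM compound was applied to crude K562 extract at 1 mg/mL protein in PBS pH 7.4 with 1 mM MgCl2. Heating for 3 min spanned 48°C-58°C, after which aliquots were pooled, adjusted to 0.5% NP-40 at 4°C and spun at 21,000xg for 90 min. TMTpro 16plex LC-MS/MS of the supernatant, with channel sums equalised, gave values recorded as log-two fold change in thermal stability against solvent controls, from duplicates.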

By UniProt entry, the sequences of proteins in these tests, tags left out. Where a name states a change or a piece, a line headed by the entry shows the natural chain unless it says otherwise.
UniProt Q15633: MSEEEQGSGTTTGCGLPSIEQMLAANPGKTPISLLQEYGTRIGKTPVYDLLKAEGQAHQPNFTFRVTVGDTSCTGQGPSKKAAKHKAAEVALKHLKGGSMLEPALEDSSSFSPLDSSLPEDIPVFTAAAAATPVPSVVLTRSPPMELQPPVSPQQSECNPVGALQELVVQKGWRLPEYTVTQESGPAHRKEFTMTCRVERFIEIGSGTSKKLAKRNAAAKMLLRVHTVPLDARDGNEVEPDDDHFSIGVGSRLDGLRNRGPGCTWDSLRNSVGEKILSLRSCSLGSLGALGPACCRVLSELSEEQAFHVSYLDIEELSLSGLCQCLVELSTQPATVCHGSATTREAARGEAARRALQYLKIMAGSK
UniProt Q15814: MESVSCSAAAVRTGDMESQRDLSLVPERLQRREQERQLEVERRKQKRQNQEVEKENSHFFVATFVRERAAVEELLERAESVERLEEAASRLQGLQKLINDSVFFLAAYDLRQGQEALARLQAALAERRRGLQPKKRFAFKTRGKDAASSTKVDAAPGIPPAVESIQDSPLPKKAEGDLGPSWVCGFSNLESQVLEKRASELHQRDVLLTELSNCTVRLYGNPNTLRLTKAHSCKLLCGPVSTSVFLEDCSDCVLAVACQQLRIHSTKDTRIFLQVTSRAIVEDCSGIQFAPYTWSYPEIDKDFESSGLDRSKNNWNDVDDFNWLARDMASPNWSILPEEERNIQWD
UniProt Q99426: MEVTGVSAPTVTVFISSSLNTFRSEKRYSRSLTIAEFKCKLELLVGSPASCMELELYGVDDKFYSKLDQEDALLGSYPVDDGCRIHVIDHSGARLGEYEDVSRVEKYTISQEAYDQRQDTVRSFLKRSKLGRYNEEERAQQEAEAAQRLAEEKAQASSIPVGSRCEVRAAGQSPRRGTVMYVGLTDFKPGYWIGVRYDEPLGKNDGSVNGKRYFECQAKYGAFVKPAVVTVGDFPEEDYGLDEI
UniProt P0C1Z6, whole entry, looked up: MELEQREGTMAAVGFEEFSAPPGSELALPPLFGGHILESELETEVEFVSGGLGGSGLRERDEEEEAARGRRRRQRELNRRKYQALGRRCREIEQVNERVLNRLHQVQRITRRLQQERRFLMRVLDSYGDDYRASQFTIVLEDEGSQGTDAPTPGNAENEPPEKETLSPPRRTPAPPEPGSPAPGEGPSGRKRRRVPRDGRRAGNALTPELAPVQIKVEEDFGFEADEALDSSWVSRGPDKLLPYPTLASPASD
UniProt Q5VWN6: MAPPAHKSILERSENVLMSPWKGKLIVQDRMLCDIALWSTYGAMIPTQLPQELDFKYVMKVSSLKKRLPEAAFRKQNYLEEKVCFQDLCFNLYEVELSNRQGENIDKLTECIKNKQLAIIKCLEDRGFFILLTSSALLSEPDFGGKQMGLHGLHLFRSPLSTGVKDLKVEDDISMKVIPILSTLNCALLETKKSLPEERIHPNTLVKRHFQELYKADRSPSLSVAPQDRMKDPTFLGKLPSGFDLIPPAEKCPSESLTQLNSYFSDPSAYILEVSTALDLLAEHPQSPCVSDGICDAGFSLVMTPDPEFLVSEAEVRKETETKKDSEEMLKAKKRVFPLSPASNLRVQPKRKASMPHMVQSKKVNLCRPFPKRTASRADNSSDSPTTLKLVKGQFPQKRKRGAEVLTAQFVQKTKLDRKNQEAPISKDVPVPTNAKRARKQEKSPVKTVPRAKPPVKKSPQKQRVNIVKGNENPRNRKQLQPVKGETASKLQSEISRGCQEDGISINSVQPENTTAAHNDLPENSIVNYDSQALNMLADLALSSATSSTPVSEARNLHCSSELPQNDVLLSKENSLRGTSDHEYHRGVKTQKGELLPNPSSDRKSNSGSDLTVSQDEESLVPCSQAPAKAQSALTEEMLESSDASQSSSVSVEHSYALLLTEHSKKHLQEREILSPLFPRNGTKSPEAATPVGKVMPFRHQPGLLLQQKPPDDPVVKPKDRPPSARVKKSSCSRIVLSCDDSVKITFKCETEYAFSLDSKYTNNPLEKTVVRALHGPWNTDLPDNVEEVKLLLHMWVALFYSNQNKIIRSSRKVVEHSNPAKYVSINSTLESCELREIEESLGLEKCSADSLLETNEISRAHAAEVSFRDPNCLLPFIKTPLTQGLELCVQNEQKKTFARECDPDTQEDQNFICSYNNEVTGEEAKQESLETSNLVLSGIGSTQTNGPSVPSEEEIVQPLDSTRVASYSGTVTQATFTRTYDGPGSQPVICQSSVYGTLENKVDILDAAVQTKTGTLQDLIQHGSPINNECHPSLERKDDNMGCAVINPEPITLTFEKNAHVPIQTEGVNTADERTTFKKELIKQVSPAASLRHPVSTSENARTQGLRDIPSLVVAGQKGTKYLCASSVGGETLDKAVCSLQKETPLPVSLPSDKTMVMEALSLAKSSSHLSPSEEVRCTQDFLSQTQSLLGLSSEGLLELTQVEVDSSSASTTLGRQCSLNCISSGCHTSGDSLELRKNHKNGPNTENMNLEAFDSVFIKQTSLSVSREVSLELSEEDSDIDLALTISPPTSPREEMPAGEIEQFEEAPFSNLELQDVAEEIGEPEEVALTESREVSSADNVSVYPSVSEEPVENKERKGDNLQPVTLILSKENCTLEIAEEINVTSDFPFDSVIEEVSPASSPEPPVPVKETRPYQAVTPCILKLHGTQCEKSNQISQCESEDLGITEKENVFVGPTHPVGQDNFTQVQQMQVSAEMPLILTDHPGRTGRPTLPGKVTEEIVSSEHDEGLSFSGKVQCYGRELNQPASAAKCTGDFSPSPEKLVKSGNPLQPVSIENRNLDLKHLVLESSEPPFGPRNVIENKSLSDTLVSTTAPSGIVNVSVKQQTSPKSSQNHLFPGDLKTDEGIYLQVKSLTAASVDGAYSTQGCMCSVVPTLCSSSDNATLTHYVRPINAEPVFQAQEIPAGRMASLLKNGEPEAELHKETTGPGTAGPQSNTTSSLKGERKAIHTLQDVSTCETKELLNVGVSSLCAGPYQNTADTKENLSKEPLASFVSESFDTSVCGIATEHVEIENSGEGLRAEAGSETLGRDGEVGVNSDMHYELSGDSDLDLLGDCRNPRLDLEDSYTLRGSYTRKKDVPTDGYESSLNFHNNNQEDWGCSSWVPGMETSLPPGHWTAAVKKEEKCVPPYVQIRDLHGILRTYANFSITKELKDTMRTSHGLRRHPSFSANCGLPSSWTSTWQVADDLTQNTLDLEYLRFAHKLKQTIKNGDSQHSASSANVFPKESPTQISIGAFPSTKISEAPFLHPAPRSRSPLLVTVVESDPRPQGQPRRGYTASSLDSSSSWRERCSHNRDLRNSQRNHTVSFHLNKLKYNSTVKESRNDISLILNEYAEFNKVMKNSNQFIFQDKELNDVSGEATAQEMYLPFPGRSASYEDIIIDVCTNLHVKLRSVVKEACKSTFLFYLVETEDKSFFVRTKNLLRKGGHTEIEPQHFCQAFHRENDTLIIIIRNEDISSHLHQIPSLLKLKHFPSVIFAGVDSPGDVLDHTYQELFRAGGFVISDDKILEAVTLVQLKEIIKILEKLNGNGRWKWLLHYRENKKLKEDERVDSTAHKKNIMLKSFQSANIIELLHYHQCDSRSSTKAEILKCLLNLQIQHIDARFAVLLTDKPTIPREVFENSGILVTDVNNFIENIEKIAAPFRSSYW
UniProt Q01664: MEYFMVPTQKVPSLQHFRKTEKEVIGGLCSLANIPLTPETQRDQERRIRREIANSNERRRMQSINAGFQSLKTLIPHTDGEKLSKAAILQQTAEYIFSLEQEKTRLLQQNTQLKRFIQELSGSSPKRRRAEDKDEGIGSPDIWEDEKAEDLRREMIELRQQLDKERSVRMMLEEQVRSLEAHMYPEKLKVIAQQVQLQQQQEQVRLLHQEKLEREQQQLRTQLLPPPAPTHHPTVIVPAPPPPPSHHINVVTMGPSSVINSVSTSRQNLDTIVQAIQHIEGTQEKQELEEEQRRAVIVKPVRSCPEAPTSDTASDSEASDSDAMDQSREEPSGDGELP
UniProt Q9BZK7: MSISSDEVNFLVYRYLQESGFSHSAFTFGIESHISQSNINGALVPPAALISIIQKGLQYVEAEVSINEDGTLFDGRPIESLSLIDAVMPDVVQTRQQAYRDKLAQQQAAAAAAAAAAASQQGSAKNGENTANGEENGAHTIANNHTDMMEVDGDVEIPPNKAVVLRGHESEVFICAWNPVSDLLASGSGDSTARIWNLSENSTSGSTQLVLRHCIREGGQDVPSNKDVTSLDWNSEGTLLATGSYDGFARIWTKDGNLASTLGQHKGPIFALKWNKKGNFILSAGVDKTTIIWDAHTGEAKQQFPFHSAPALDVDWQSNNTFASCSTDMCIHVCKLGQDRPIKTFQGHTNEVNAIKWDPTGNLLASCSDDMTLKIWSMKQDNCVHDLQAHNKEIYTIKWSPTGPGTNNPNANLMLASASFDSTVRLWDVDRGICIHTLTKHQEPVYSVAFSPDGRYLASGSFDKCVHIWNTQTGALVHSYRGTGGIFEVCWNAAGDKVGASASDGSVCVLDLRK

[2] = compound: CC1=C(SC2=C1C(=N[C@H](C3=NN=C(N32)C)CC(=O)N)C4=CC=C(C=C4)Cl)C
How it was run: as §1

[3] = compound: CC1=C2C(=CC=C1)N=C(N(C2=O)C3=CC=CC=C3C)CN4C=NC5=C(N=CN=C54)N
How it was run: as §1

[4] = compound: Cc1sc2c(c1C)C(c1ccc(Cl)cc1)=N[C@@H](CC(=O)OC(C)(C)C)c1nnc(C)n1-2
How it was run: as §1

[5] = compound: c1ccc([C@@H]2C[C@H]2NC2CCNCC2)cc1
How it was run: as §1

Measured: log2 fold change

TARBP2 (UniProt Q15633)
inactive: [1] 0.001 | [2] -0.003 | [3] -0.003 | [4] -0.019 | [5] 0.051

TBCC (UniProt Q15814)
inactive: [1] 0.001 | [2] 0.034 | [3] 0.008 | [4] 0.017 | [5] -0.012

TFPI (UniProt P10646)
inactive: [1] 0.053 | [2] -0.116 | [3] -0.16 | [5] 0.269

TBC1D20 isoform 3 (UniProt Q96BZ9)
inactive: [1] -0.08 | [2] -0.07 | [3] 0.005 | [4] -0.007 | [5] 0.015

TF (UniProt P02787)
inactive: [1] -0.067 | [2] -0.009 | [3] -0.029 | [4] -0.13 | [5] 0.001

TBCB (UniProt Q99426)
inactive: [1] 0.011 | [2] -0.043 | [3] 0.007 | [4] -0.071 | [5] -0.035

TFPT (UniProt P0C1Z6)
inactive: [1] -0.176 | [2] -0.078 | [4] -0.052

TANK (UniProt Q92844)
inactive: [1] 0.04 | [2] -0.088 | [3] -0.023 | [4] -0.079 | [5] -0.025

TASOR2 (UniProt Q5VWN6)
inactive: [1] 0.218 | [2] -0.06 | [4] -0.092

TBCA (UniProt O75347)
inactive: [1] 0.021 | [2] -0.03 | [3] -0.007 | [4] 0.068 | [5] -0.018

TCF12 isoform 3 (UniProt Q99081)
inactive: [1] 0.062 | [2] -0.072 | [3] 0.014 | [4] -0.048 | [5] -0.046

TFAP4 (UniProt Q01664)
inactive: [1] 0.018 | [2] -0.069 | [3] 0.012 | [5] 0.081

TERF2 (UniProt Q15554)
inactive: [1] 0.017 | [2] 0.002 | [3] 0.038 | [4] -0.008 | [5] 0.017

TEX2 isoform 2 (UniProt Q8IWB9)
inactive: [1] -0.042 | [2] 0.043 | [3] -0.037 | [4] -0.025 | [5] 0.146

TASP1 (UniProt Q9H6P5)
inactive: [1] 0.027 | [2] 0.205 | [4] 0.059

TCP1 (UniProt P17987)
inactive: [1] -0.007 | [2] 0.009 | [3] -0.011 | [4] 0.007 | [5] -0.009

TAF6L (UniProt Q9Y6J9)
inactive: [1] 0.011 | [2] -0.027 | [3] -0.094 | [4] -0.02 | [5] 0.061

TESC (UniProt Q96BS2)
inactive: [1] 0.034 | [2] -0.131 | [3] -0.001 | [4] 0.004 | [5] 0.016

TAL1 (UniProt P17542)
inactive: [1] -0.02 | [2] 0.047 | [3] 0.002 | [4] -0.008 | [5] -0.026

TARS2 (UniProt Q9BW92)
inactive: [1] -0.062 | [2] -0.059 | [3] 0.012 | [4] 0.014 | [5] 0.025

TET2 (UniProt Q6N021)
inactive: [1] 0.017 | [2] 0.034 | [4] -0.024

TBL1XR1 (UniProt Q9BZK7)
inactive: [1] 0.016 | [2] 0.02 | [3] 0.02 | [4] -0.033 | [5] -0.051

Taken from the entries so far (6 entries):
TCP1 (UniProt P17987)
inactive: [1] -0.007 | [2] 0.009 | [3] -0.011 | [4] 0.007 | [5] -0.009

TAF6L (UniProt Q9Y6J9)
inactive: [1] 0.011 | [2] -0.027 | [3] -0.094 | [4] -0.02 | [5] 0.061

TESC (UniProt Q96BS2)
inactive: [1] 0.034 | [2] -0.131 | [3] -0.001 | [4] 0.004 | [5] 0.016

TAL1 (UniProt P17542)
inactive: [1] -0.02 | [2] 0.047 | [3] 0.002 | [4] -0.008 | [5] -0.026

TARS2 (UniProt Q9BW92)
inactive: [1] -0.062 | [2] -0.059 | [3] 0.012 | [4] 0.014 | [5] 0.025

TET2 (UniProt Q6N021)
inactive: [1] 0.017 | [2] 0.034 | [4] -0.024
